PubChem BioAssay AID1259405, NCATS | 2018
This is a random part of about 50,000 reagents. Over the whole deposit, about 4,000 (8%) were called active. 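Mouse siRNA library applied to hamster cells; one well for each siRNA.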 A number with no mark means an inactive call. Reagents against one gene are numbered here.

Assay: 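Mouse-designed siRNAs used to find CHO productivity engineering targets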 (primary screen)
Cell system: Chinese hamster CHO-K1 ovary cells with stable secreted eGFP expression
Knock-down reagent: single siRNA against mouse genes, 0.8 pmol siRNA per well (2 µl of 400 nM stock)
Timing: 3 days
Read-out: 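Percent of the per-plate non-targeting control median for intracellular GFP per well by laser scanning cytometry and for cell viability by ATP luminescence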
Direction: GFP, % of control: higher = more GFP per well, higher productivity; viability (ATP), % of control: higher = more viable cells (more ATP)
Hit rule: 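a knock-down is called active if GFP reaches 120% or more of non-targeting control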

Target gene | siRNA no. | GFP, % of control | viability (ATP), % of control
Nrros (negative regulator of reactive oxygen species) | 1 | 67 | 50.1
Nrros (negative regulator of reactive oxygen species) | 2 | 108 | 102
Nrros (negative regulator of reactive oxygen species) | 3 | 54.9 | 60.3
E130114P18Rik (RIKEN cDNA E130114P18 gene) | 1 | 56.5 | 73.4
E130114P18Rik (RIKEN cDNA E130114P18 gene) | 2 | 82.4 | 78.8
E130114P18Rik (RIKEN cDNA E130114P18 gene) | 3 | 80 | 42.9
Myo7a (myosin VIIA) | 1 | 53.2 | 45.7
Myo7a (myosin VIIA) | 2 | 87 | 95.6
Klhdc8b (kelch domain containing 8B) | 1 | 174 (active) | 40.6
Klhdc8b (kelch domain containing 8B) | 2 | 86.3 | 48.5
Klhdc8b (kelch domain containing 8B) | 3 | 131 (active) | 83
Ugt2a2 (UDP glucuronosyltransferase 2 family, polypeptide A2) | 1 | 64.5 | 137
Ugt2a2 (UDP glucuronosyltransferase 2 family, polypeptide A2) | 2 | 80.9 | 118
Ugt2a2 (UDP glucuronosyltransferase 2 family, polypeptide A2) | 3 | 82.3 | 123
Spcs2 (signal peptidase complex subunit 2 homolog (S. cerevisiae)) | 1 | 90.3 | 39.5
Spcs2 (signal peptidase complex subunit 2 homolog (S. cerevisiae)) | 2 | 82.4 | 79
Spcs2 (signal peptidase complex subunit 2 homolog (S. cerevisiae)) | 3 | 72.6 | 71.1
4930550C14Rik (RIKEN cDNA 4930550C14 gene) | 1 | 36.5 | 49.3
4930550C14Rik (RIKEN cDNA 4930550C14 gene) | 2 | 89.7 | 71
4930550C14Rik (RIKEN cDNA 4930550C14 gene) | 3 | 78.8 | 83.1
Snx8 (sorting nexin 8) | 1 | 61 | 97.5
Snx8 (sorting nexin 8) | 2 | 85.7 | 78.2
Or1j4 (olfactory receptor family 1 subfamily J member 4) | 1 | 92.7 | 73.7
Or1j4 (olfactory receptor family 1 subfamily J member 4) | 2 | 110 | 89.9
Or1j4 (olfactory receptor family 1 subfamily J member 4) | 3 | 99.6 | 122
Ppa2 (pyrophosphatase (inorganic) 2) | 1 | 76.5 | 55.6
Ppa2 (pyrophosphatase (inorganic) 2) | 2 | 57.6 | 70.7
Ppa2 (pyrophosphatase (inorganic) 2) | 3 | 97.8 | 97.5
Vmn2r81 (vomeronasal 2, receptor 81) | 1 | 45.9 | 40.6
Vmn2r81 (vomeronasal 2, receptor 81) | 2 | 57.6 | 61.1
Vmn2r81 (vomeronasal 2, receptor 81) | 3 | 68.3 | 83.3
Dnpep (aspartyl aminopeptidase) | 1 | 71.8 | 107
Dnpep (aspartyl aminopeptidase) | 2 | 136 (active) | 90.2
Hmgn3 (high mobility group nucleosomal binding domain 3) | 1 | 46.8 | 40.1
Hmgn3 (high mobility group nucleosomal binding domain 3) | 2 | 89.6 | 71.8
Hmgn3 (high mobility group nucleosomal binding domain 3) | 3 | 102 | 80.1

An excerpt of the results above:
Target gene | siRNA no. | GFP, % of control | viability (ATP), % of control
Spcs2 (signal peptidase complex subunit 2 homolog (S. cerevisiae)) | 3 | 72.6 | 71.1
4930550C14Rik (RIKEN cDNA 4930550C14 gene) | 1 | 36.5 | 49.3
4930550C14Rik (RIKEN cDNA 4930550C14 gene) | 2 | 89.7 | 71
4930550C14Rik (RIKEN cDNA 4930550C14 gene) | 3 | 78.8 | 83.1
